# Results reported in publication PMC10959665.
# Amino acid sequences for entries named in this document (tags omitted). A change or cut given only in a name is not applied to a line headed by its entry. Residues count along the entry.
# UniProt P70452: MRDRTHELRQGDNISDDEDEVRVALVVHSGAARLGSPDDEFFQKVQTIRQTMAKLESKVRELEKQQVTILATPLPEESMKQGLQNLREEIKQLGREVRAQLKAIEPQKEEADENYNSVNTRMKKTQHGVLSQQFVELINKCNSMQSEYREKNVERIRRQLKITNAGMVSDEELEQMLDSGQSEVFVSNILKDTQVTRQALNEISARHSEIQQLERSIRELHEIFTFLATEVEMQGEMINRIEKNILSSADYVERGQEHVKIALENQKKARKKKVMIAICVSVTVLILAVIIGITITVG
# UniProt P63044, residues 2-94: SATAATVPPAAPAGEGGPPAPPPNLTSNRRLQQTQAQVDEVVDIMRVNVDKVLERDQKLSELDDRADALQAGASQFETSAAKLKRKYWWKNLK
# These are yes or no findings as the source states them, for the method shown. Some binding calls cover weakened binding; strength is not graded here.
# Experiments:
# [1] = target: t-SNAREs: syntaxin-4/SNAP-23 on liposomes (UniProt P70452); assay: liposome co-flotation; t-SNARE liposomes incubated with GST-V2CD for 1 h at 4 °C to assemble the cis-SNARE complex; 37 °C for 1 h without NSF and α-SNAP; Nycodenz gradient flotation; SDS-PAGE, Coomassie blue; both purified
# [2] = target: t-SNAREs: syntaxin-4/SNAP-23 on liposomes (UniProt P70452); assay: condition: only with 1 μM NSF, 2 μM α-SNAP, 2.5 mM ATP and 5 mM MgCl2/EDTA, also with 5 μM Munc18c; liposome co-flotation; preformed cis-SNARE complex on liposomes incubated with 1 μM NSF, 2 μM α-SNAP, 2.5 mM ATP and 5 mM MgCl2/EDTA, without or with 5 μM Munc18c, at 37 °C for 1 h; Nycodenz gradient flotation; SDS-PAGE, Coomassie blue; both purified
# [3] = target: t-SNAREs: syntaxin-4/SNAP-23 on liposomes (UniProt P70452); assay: liposome co-flotation; soluble proteins incubated with t-SNARE liposomes (100% phosphatidylcholine) at 4 °C for 1 h; 5 μM SNAREs and 5 μM Munc18c or α-SNAP; Nycodenz gradient flotation; SDS-PAGE, Coomassie blue; both purified
binding [1],binding [2],binding [3],Molecule
binds,no binding,,GST-tagged cytoplasmic domain of VAMP2 (from UniProt P63044 2-94) (domain or fragment)
,,binds,"alpha soluble N-ethylmaleimide-sensitive factor attachment protein (α-SNAP), wild type (protein, UniProt P54920 1-295) MDNSGKEAEAMALLAEAERKVKNSQSFFSGLFGGSSKIEEACEIYARAANMFKMAKNWSAAGNAFCQAAQLHLQLQSKHDAATCFVDAGNAFKKADPQEAINCLMRAIEIYTDMGRFTIAAKHHISIAEIYETELVDIEKAIAHYEQSADYYKGEESNSSANKCLLKVAGYAALLEQYQKAIDIYEQVGTNAMDSPLLKYSAKDYFFKAALCHFCIDMLNAKLAVQKYEELFPAFSDSRECKLMKKLLEAHEEQNVDSYTESVKEYDSISRLDQWLTTMLLRIKKTIQGDEEDLR"
